For two substances, binding results are on record in patent US20220125744A1.

The chains behind the UniProt entries cited, without tags or fusion partners.
UniProt Q92731: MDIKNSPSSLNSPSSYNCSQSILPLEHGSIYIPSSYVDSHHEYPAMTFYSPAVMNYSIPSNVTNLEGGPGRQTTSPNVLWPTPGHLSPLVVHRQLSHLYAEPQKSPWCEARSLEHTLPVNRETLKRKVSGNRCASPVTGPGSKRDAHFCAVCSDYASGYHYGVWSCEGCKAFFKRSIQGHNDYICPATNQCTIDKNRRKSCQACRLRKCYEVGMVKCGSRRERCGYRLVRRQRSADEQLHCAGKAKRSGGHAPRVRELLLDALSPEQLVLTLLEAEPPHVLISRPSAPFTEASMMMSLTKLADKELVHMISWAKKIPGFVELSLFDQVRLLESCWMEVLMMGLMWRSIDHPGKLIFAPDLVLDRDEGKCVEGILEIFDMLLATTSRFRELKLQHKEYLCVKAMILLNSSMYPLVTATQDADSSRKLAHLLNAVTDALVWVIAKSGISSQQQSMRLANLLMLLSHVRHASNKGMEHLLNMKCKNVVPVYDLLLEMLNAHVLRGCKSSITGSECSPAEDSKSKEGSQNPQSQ

These are yes or no findings as the source states them, for the method shown. Some results given as binding are weak or reduced against the parent protein; the word gives no strength.

The target in test [1] is T1, TP73, endogenous (UniProt O15350).
T1 sequence (looked up): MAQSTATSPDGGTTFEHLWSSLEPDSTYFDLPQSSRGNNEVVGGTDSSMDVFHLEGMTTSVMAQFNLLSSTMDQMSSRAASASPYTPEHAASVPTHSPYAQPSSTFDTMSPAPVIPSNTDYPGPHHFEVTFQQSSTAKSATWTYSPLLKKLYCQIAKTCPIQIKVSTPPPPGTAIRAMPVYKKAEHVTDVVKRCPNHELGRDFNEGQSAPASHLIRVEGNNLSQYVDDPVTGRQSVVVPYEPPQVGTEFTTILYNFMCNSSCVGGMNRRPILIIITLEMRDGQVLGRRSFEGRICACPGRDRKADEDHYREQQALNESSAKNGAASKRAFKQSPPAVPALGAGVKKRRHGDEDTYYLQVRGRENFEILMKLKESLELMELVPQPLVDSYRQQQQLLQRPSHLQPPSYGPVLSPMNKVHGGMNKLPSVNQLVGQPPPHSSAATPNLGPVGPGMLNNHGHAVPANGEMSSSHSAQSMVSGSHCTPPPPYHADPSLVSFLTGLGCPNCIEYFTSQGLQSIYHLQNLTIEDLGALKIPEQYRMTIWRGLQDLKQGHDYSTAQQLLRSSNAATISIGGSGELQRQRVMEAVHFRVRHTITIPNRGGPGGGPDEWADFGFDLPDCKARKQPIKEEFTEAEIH
Description: in situ PLA, MDA-MB-231 (FIG. 16A).

For test [2], the target named is T1, TP73, endogenous. Description: in situ PLA with anti-FLAG and anti-TP73 antibodies, MDA-MB-231 and SK-BR-3 (FIGS. 16B-C).

For “estrogen receptor-beta (ESR2), endogenous (from UniProt Q92731 1-530)”, in the test with TP73, endogenous [1], the binding entry is given as “binds”.
“N-terminally FLAG-tagged human ESR2 full-length (from UniProt Q92731 1-530) (receptor)”: in the test with TP73, endogenous [2], the binding entry was “binds”.
